Laboratory results reported in PubChem BioAssay AID588497 (NMMLSC, 2011).
The campaign covered roughly 360,000 compounds. About 780 (0.22%) were called active. The shares of active, inactive and inconclusive entries below differ from those in the screen. Cut-off read from the data, not from the text of the source: active = inhibition above about 35% (passing the limit was not always enough); inconclusive = no clear call, values can overlap the other calls.

Each compound was assayed on Botulinum neurotoxin type F light chain protease (Clostridium botulinum) (assay: BoNT/F light chain protease inhibitors, primary screen, biochemical, flow cytometry, MLPCN library (AID 588497; note: plate controls were buffer without enzyme for full effect and enzyme alone for no effect)). Conditions: Multiplex microsphere protease cleavage assay, at 10 µM, active compounds read high.

SMILES	inhibition
COC(=O)Cn1c2[n+](c3ccccc31)CC(O)CS2 (configuration not stated)	inconclusive: -22.8%
CC(C)n1cc(/C=N/Nc2ccc(Cl)c(C(=O)O)c2)c2ccccc21	inconclusive: 8%
COc1ccc(OCC(O)CN2CCCC2)cc1 (configuration not stated)	inconclusive: -11.5%
COc1cc(OC)cc(C(=O)Nc2cc(C)nn2-c2ccccc2)c1	inactive: 5.5%
COC(=O)C1C(O)=C(C=NC2CCCCC2)C(=O)CC1(C)C (configuration not stated)	inactive: -15.2%
CCOC(=O)C(CO)(NC(C)=O)C(=O)OCC	inconclusive: 9.2%
Cc1cc(C)cc(NC(=O)COc2coc(CN3CCc4ccccc43)cc2=O)c1	inactive: 6.3%
COc1cc2c(cc1OC)C(c1ccc([N+](=O)[O-])cc1)NC(=O)C2 (configuration not stated)	inconclusive: 8.3%
COc1ccc(/C=C/C(=O)NC(C)C)cc1Br	inactive: 1.3%
Cc1cc(NCc2ccc(F)cc2)nc2cc(Cl)ccc12	inconclusive: -21.9%
Cc1ccccc1NC(=O)Cc1nnc(N)s1	inconclusive: -242%
CCOC(=O)NNc1cc(C(F)(F)F)ccn1	inconclusive: 22.2%
COC(=O)c1sc(-c2ccc(Cl)cc2)cc1NC(=O)COCC(=O)O	inconclusive: -298%
COc1ccc(N2CCN(C(=S)Nc3ccccc3)CC2)cc1	inconclusive: -5.9%
Cc1ccc(S(=O)(=O)C2(C(=O)Nc3ccc(Br)cc3)CC2)cc1	inactive: -1.1%
Cc1nc(C)n(C(C)CNC(=O)c2cccc(Br)c2)n1 (configuration not stated)	inconclusive: 7.1%
Cc1cc(C)cc(NC(=O)COC(=O)COc2cccc3c2OC(C)(C)C3)c1	inconclusive: 6.1%
COC(=O)C1CC(O)CN1C(=O)c1ccco1 (configuration not stated)	inconclusive: -4.7%
COc1ccc(C2CC(C)(c3ccc(OC)cc3)Nc3ccccc3N2)cc1 (configuration not stated)	inconclusive: -33.7%
O=C(NCc1ccccc1)c1ccc(CS(=O)(=O)Cc2ccc(F)cc2)o1	inactive: 2.6%
Cc1ccccc1-n1c(O)c(C(c2ccncc2)c2c(O)n(-c3ccccc3C)c(=O)[nH]c2=O)c(=O)[nH]c1=O	inconclusive: -19.4%
Cc1cc(C)nc(OC(C(=O)O)C(OCCc2ccccc2)(c2ccccc2)c2ccccc2)n1 (configuration not stated)	inconclusive: 1.9%
CN1/C(=C\C=Nc2ccccc2)C(C)(C)c2ccccc21	inconclusive: -31.8%

An excerpt of these results, with each value named.
COC(=O)c1sc(-c2ccc(Cl)cc2)cc1NC(=O)COCC(=O)O
  inhibition: inconclusive: -298%
COc1ccc(N2CCN(C(=S)Nc3ccccc3)CC2)cc1
  inhibition: inconclusive: -5.9%
Cc1ccc(S(=O)(=O)C2(C(=O)Nc3ccc(Br)cc3)CC2)cc1
  inhibition: inactive: -1.1%

(list continues)

SMILES	inhibition
CCOC(=O)c1ccc(Oc2nc(NC)nc(SC)n2)cc1	inactive: -10.9%
O=C(CCCOc1ccc(Cl)cc1Cl)NCCc1ccccn1	inactive: 10.1%
COc1ccc(NC(=O)C2CCN(c3cc(C)nc(-c4ccccc4)n3)CC2)cc1	inconclusive: 3.2%
COC(=O)c1sc(S(=O)(=O)N2CCC(C(N)=O)CC2)c(C(=O)OC)c1C	inconclusive: 12.5%
c1ccc(-c2nc(N3CCOCC3)c3ccccc3n2)nc1	inactive: -2.7%
O=C(Nc1ccc(F)cc1)OCCOc1ccc(Br)cc1	inconclusive: 11.4%
COc1ccc(OC)c(C2Nc3ccccc3NC3=C2C(=O)CC(C)(C)C3)c1 (configuration not stated)	inconclusive: 3.4%
CN(c1ccccc1)S(=O)(=O)c1ccc(C(=O)N2CCN(c3ccccc3Cl)CC2)cc1	inconclusive: -30.4%
O=C(COc1ccccc1F)N1CCCc2ccccc21	inconclusive: -5.3%
CCOc1ccc(OCCC(=O)OCC(=O)Nc2ccc(C)c(S(=O)(=O)N3CCCCC3)c2)cc1	inconclusive: -6.5%
CC(C)Sc1nc2c(c(=O)[nH]c(=O)n2C)n1Cc1ccc(Cl)cc1	inconclusive: -41.5%
NNC(=O)c1cc(-c2cccs2)nc2ccccc12	inactive: -3.6%
COc1cc(/C=N/n2nnnc2N)cc(Cl)c1OC	inconclusive: -29.4%
O=C(CCc1ccccc1)NNc1ccc(F)cc1	inconclusive: -57.3%
CCCCC(=O)Nc1nn(C)c2nc3c(C)cccc3cc12	inconclusive: -41.7%
CCc1ccc(C(=O)NNc2ccc(Cl)cc2)cc1	inconclusive: -36.9%
CCCCn1c(N)c(N(CC)C(=O)c2ccc(-c3ccc(Cl)cc3)o2)c(=O)[nH]c1=O	inconclusive: 6.9%
CN(C)/C=N/c1nc2nccc(-c3ccc(Cl)cc3)n2n1	inactive: -4.8%
O=S(=O)(NCCc1ccncc1)c1ccc(F)cc1	inactive: -10.9%
COc1ccccc1NC(=O)C1CCCN(S(=O)(=O)c2ccccc2)C1 (configuration not stated)	inactive: 0.5%
COc1ccc(C(=O)Nc2nnc(-c3ccc(F)cc3)s2)c(OC)c1	inconclusive: -0.6%
CC1(C)CC(=O)C(C=NCCCN2CCCC2=O)=C(O)C1	inactive: -1.9%
CC(C)(C)OC(=O)N[C@@H](Cc1ccccc1)c1nnc(SCC(N)=O)o1	inconclusive: -61%

SMILES	inhibition
Cc1oc(CSCC2CCCO2)cc1C(=O)O (configuration not stated)	inconclusive: -27.1%
COCCCN1C(=O)c2ccccc2C1C(=O)NC1CCCCCC1 (configuration not stated)	inactive: 1.3%
COc1ccc(/C(C)=N/NC(=O)Cn2nc([N+](=O)[O-])cc2C)cc1	inconclusive: -11.5%
CCn1cc(C(=O)O)c(=O)c2cnc(N3CCN(C(=S)NC(=O)c4ccc(F)c(F)c4)CC3)nc21	inconclusive: -2.5%
CSc1ccccc1NC(=O)c1ccc(Br)o1	inconclusive: -24.7%
COc1cc(CNc2ccc(S(N)(=O)=O)cc2)ccc1OCc1ccccc1F	inconclusive: 10.1%
Cc1cc(Br)ccc1SCC(=O)OCC(=O)Nc1ccc2[nH]c(=O)[nH]c2c1	active: 61.8%
Nc1nnc(SCc2ccccc2Cl)s1	inconclusive: 21%
Cc1ccccc1NC(=O)c1ccc2c(c1)CCN2S(C)(=O)=O	inconclusive: -10.6%
CC(=O)Nc1cccc(NC(=O)CS(=O)(=O)c2cn(CC(=O)N3CCCC3)c3ccccc23)c1	inactive: 1.4%
COC(=O)c1c(C)oc(C)c1S(=O)(=O)NCC1CC1	inconclusive: 11.1%
COC(=O)[C@@]1(C(C)C)N=C(c2cc(OC)c(OC)c(OC)c2)[C@]2(O1)C(=O)Nc1ccccc12	inactive: 1.1%
COC(=O)/C=C1\NCCNC1=O	inconclusive: 8%
CNC(=S)SCCOc1ccccc1	inconclusive: 126%
Cc1ccc(OCc2ccc(C(=O)NN)o2)c([N+](=O)[O-])c1	inconclusive: 40.8%
COCCCn1c(=O)c2sccc2n(Cc2cc(C(=O)OC)ccc2OC)c1=O	inconclusive: -3.1%
O=C(NCc1ccc(F)cc1)c1ccncc1	inconclusive: -17.5%
COc1ccc(OCC(O)CNCCNc2nccc(C(F)(F)F)n2)cc1 (configuration not stated)	inconclusive: 30.2%
CCc1nnc(NC(=O)C2CCCN2S(=O)(=O)c2ccc(C)cc2)s1 (configuration not stated)	inconclusive: -23.4%
C[C@@H]1CN([C@@H](C)CO)C(=O)CCCn2nncc2CO[C@H]1CN(C)S(C)(=O)=O	inactive: -3.2%
N#C/C(=C\Nc1ccc(Cl)cc1)S(=O)(=O)c1ccccn1	inconclusive: 174%
O=C(COC(=O)CNC(=O)c1ccc(Br)o1)Nc1ccccc1OC(F)F	inactive: -2.6%
CCSC(=S)c1c(C)[nH]n(-c2ccccc2)c1=O	inconclusive: -4.8%

Taken from above (five entries):
SMILES	inhibition
Cc1cc(Br)ccc1SCC(=O)OCC(=O)Nc1ccc2[nH]c(=O)[nH]c2c1	active: 61.8%
Nc1nnc(SCc2ccccc2Cl)s1	inconclusive: 21%
Cc1ccccc1NC(=O)c1ccc2c(c1)CCN2S(C)(=O)=O	inconclusive: -10.6%
CC(=O)Nc1cccc(NC(=O)CS(=O)(=O)c2cn(CC(=O)N3CCCC3)c3ccccc23)c1	inactive: 1.4%
COC(=O)c1c(C)oc(C)c1S(=O)(=O)NCC1CC1	inconclusive: 11.1%

Remaining list, next part

SMILES	inhibition
N=C1C(c2nc3ccccc3c(=O)[nH]2)=C(O)CN1CCO	inconclusive: -11.5%
CN(CCN(C)C(C)(C)C)C(=O)C(c1ccccc1)c1ccccc1	inconclusive: 46.2%
Cc1c(-c2ccccc2)nc(N)c(C#N)c1-c1ccco1	inactive: -2.1%
C(=N\N1CCN(c2ccccn2)CC1)/c1cccc2ccccc12	inconclusive: -21%
Cc1cccn2c(=O)c3cc(C#N)c(=NC(=O)c4cccs4)n(CCCOC(C)C)c3nc12	inconclusive: -54.1%
Cc1ccc(S(=O)(=O)N2C(=O)CCC2C(=O)N2CCCCC2)cc1 (configuration not stated)	inconclusive: 9.8%
O=C(CC1C(=O)NCCN1C(=O)Nc1ccccc1)Nc1cc(Cl)ccc1Cl (configuration not stated)	inconclusive: 51.7%
NC(=S)Nc1ccc(Cl)cc1Cl	inconclusive: 2.7%
N#CC1=C(N)OC2=C(C(=O)CCC2)C1c1cc2c(cc1Br)OCO2 (configuration not stated)	inconclusive: 6.4%
CN(C)C(=O)c1cc(C(=O)c2c(F)cccc2F)c[nH]1	inconclusive: -12.3%
CCNC(=O)O/N=C(\C)c1sc(-c2ccccc2)nc1C	inconclusive: -20.6%
CN(C)CCOC(=O)C12CC3CC(C1)CC(C(=O)OCCN(C)C)(C3)C2	inconclusive: -3.5%
CCC(Sc1nc2ccccc2s1)C(=O)Nc1cc(C)on1 (configuration not stated)	inconclusive: 7.7%
CC1=NN(c2ccccc2)C(=O)C1/C=C1\C(=O)NC(=O)N(c2ccc(C)c(C)c2)C1=O (configuration not stated)	inconclusive: 16.3%
O=[N+]([O-])c1cc(C(F)(F)F)ccc1NC1CCN(Cc2ccccc2)CC1	inconclusive: 16%
O=[N+]([O-])c1ccc(-c2cnc[nH]2)cc1	inconclusive: -4.5%
CCN(c1cccc(C)c1)C(C(=O)Nc1ccc(OC)cc1)c1cc2c(cc1[N+](=O)[O-])OCO2 (configuration not stated)	inactive: 1.6%
C#CCN(CC=C)C(=O)c1cccc(OC2CCN(S(C)(=O)=O)CC2)c1	inconclusive: -33.7%
COc1ccc(Br)cc1/C=N/Nc1ccccn1	inactive: 7.1%
N#Cc1cccc(NC(=O)c2nc(-c3ccccc3)n(-c3ccccc3)n2)c1	inconclusive: 5.4%
O=C1CCN(Cc2ccccc2)S(=O)(=O)c2c(F)cc(F)cc21	inactive: 5.5%
Cc1ccc(NS(=O)(=O)c2cccc3cccnc23)c(Br)c1	inconclusive: -29.7%
N[C@@H](Cc1c[nH]c2ccccc12)c1nnc(SCc2ccccc2F)o1	inactive: -3.9%
